From US10647680B2, “Urea compound, preparation method therefor and medical use thereof” (Ancureall Pharmaceutical (Shanghai) Co., Ltd., priority 2016, dated 2020)
Some of these results come from one statement about several compounds together.

Legend:
[1] = system: tumor cells with abnormal expressions of EGFR, HER2/ERBB2, FGFR1, RAS, BRAF, cMET, and ALK genes; experiment: In vitro growth inhibition of different tumor cells (summary over the panel); format: cell-based, human; conditions: ALK versus MV4-11
Source text: Human epidermal cancer cell line A431 (EGFR WT, amplification and high expression, from Shanghai Cell Bank of Chinese Academy of Sciences and ATCC), human lung cancer cell line NCI-H292 (EGFR WT, purchased from Shanghai Cell Bank of Chinese Academy of Sciences), NSCLC cell lines PC-9 and HCC827 (EGFR exon19 E746-A750 deletion, two cell lines are sensitive to the first-generation EGFR PTK inhibitor), NSCLC cell line NCI-H1975 (EGFR L858R/T790M and the first-generation EGFR inhibitor resistance, ATCC) were cultured with 1×RPMI1640 complete medium (supplement with 10% FBS), respectively.
Human gastric cancer cell line NCI-N87 (HER2/ErbB2 amp, ATCC), human breast cancer cell line HCC1954 (HER2/ErbB2 amp, ATCC) and ZR-75-30 (HER2/ErbB2 amp, ATCC), human adenocarcinoma cell line AU565 (HER2/ErbB2 amp, ATCC), human lung squamous cell carcinoma cell line NCI-H2170 (HER2/ErbB2 amp, ATCC), human bronchioalveolar adenocarcinoma cell line NCI-H1781 (HER2/ErbB2 Ins G776V,C mutant type, ATCC) were cultured with a 1×RPMI1640 complete medium (10% FBS), respectively. Human lung adenocarcinoma cell line Calu-3 (HER2/ErbB2 amp, ATCC) was cultured with 1×MEM, 10% FBS, 1% double antibody, 1% NEAA (Gibco), 2 mM glutamine and 1 mM sodium pyruvate. The human breast cancer cell line SK-BR-3 (HER2/ErbB2 amp, ATCC) was cultured with a McCOY'S5A complete medium (10% FBS).
The human gastric cancer cell line MKN-45 (c-MET amp, ATCC) and the non-small cell lung cancer cell line NCI-H1993 (c-MET amp, ATCC) were cultured in complete medium comprising 1×RPMI1640 and 10% FBS, respectively.
Human non-small cell lung cancer cell line NCI-H2228 (expressing EML4-ALK fusion gene, ATCC) and human anaplastic large cell lymphoma cell line Karpas-299 (expressing NPM-ALK fusion gene, ATCC) were cultured in complete medium comprising 1×RPMI1640 (10% FBS), respectively. Neuroblastoma cell line SH-SY5Y (expressing ALK F1174L mutant protein, Shanghai Cell Bank, Chinese Academy of Sciences) was cultured in MEM complete medium (1×MEM, 10% FBS, 1% NEAA, 1 mM sodium pyruvate).
Human non-small cell lung cancer cell NCI-H1581 (FGFR1 amp, ATCC) is an FGFR1 gene amplified/overexpressed tumor cell line. It was cultured in complete medium comprising 1×RPMI1640 with 10% FBS.
Human large cell lung cancer cell NCI-H460 (KRAS […] mutant type, ATCC), human non-small cell lung cancer cell line H1299 (NRAS Q61K mutant type, ATCC), human melanoma cell line A375 (BRAF V600E mutant type, Shanghai Cell Bank of Chinese Academy of Sciences), human colon cancer cell line HCT116 (KRAS G13D mutant type, Shanghai Cell Bank, Chinese Academy of Sciences) were cultured in a complete medium of 1×RPMI1640 (10% FBS), respectively. Human non-small cell lung cancer cells A549 (KRAS G12S mutant type, Shanghai Cell Bank, Chinese Academy of Sciences) were cultured in a complete medium of 1× Ham's supplemented with 10% FBS, 1% double antibody, and 2 mM glutamine.
Adherent cells were digested with 0.25% pancreatin-EDTA (Gibco). The suspension cells were collected by centrifugation. The supernatant was discarded and the cell pellet was resuspended and counted. Different cell concentrations (5˜10×10^4 cells/mL) were prepared according to the growth cycle of each cell line and then seeded on a 96-well plate (Corning), 100 μL/well. The cells were incubated overnight at 37° C., 5% CO2. The compounds were added to the cells on the second day with 2 wells in parallel. The final concentration of organic solvent shall not exceed 1%. The cells were continually incubated for 3 to 5 days, and then subjected to MTT assay.
The compound of the present invention and the control compound were dissolved in DMSO (Sigma) respectively, with the purity of more than 98%. The compound was stored in a concentration of 10 mM at −20° C. and diluted to 2- or 10-fold series prior to use.
Dojindo CCK8 reagent kit was used as MTT assay. THERMO […] FC meter was used as microplate reader. […]

[2] = system: MV4-11 cell Bab/c nude mouse tumor model; experiment: In vivo tumor growth inhibition experiment; conditions: dose ≥50 mg/kg
Description: Xenotransplantation in immunodeficient mice is an effective model for testing in vivo antitumor activity of compounds in animals. Bab/c immunodeficient mice are one of the most commonly used tumor cell xenografts. […] Log-phase MV4-11 cells were collected in a 50 ml of centrifuge tube (Corning), centrifuged at 1,700 rpm for 3 minutes, and the supernatant was discarded. Cells were suspended in a 50 ml 1×RPMI 1640 serum-free medium, and centrifuged, the supernatant was discarded and resuspension was performed. The cells were counted (Countess® Automated Cell Counting Apparatus, Invitrogen), prepared into […], placed on ice, and inoculated subcutaneously with 10×10^6 (0.2 ml) to the right back of 6-8-week female Bab/c nude mice (about 20 g in weight) (purchased from Shanghai Sippr-BK Experimental Animal Co., Ltd., Animal Center of Shanghai University of Traditional Chinese Medicine, approved by Ethical Committee of Shanghai University of Traditional Chinese Medicine). When the tumor grew to a size of 100-200 mm^3, animals were randomly grouped and earmarked and weighed. […] In the control group, 3 to 6 nude mice in each group were given the same volume (0.1 ml/10 g body weight) of solvent PTP solution, and the tumors were measured 3 to 4 times per week. […]
The tumor volume was calculated as V=½a×b^2, where a is the length and b is the width. […]

Row | SMILES | GI50 relative to the GI50 of MV4-11 [1] | body weight of nude mice reduced by [2]
1 | CC(C)(C)c1cc(NC(=O)Nc2ccc(-n3cnc4cc(OCCN5CCOCC5)ccc43)cc2)no1 [Compound 16, 1-(5-tert-butyl-isoxazol-3-yl)-3-{4-[5-(2-morpholin-4-yl-ethoxyl)-benzimidazol-1-yl]-phenyl}-urea] | more than 1,000 times | –
2 | CC(C)(C)c1cc(NC(=O)Nc2ccc(-n3cnc4ccc(OCCN5CCOCC5)cc43)cc2)no1 [Compound 27, 1-(5-tert-butyl-isoxazol-3-yl)-3-{4-[6-(2morpholin-4-yl-ethoxyl)-benzimidazol-1-yl]-phenyl}-urea] | more than 1,000 times | –
3 | CC(C)(C)c1cc(NC(=O)Nc2ccc(-n3cnc4ccccc43)cc2)[nH]n1 [Compound 68, 1-(4-benzimidazol-1-yl-phenyl)-3-(5-tert-butyl-2H-pyrazol-3-yl)-urea] | more than 1,000 times | 10%-20%
4 | COc1ccc2c(c1)ncn2-c1ccc(NC(=O)Nc2cc(C(C)(C)C)n[nH]2)cc1 [Compound 71, 1-(5-tert-butyl-2H-pyrazol-3-yl)-3-[4-(5-methoxyl-benzimidazol-1-yl)-phenyl]-urea] | more than 1,000 times | 10%-20%
5 | COCCOc1ccc2c(c1)ncn2-c1ccc(NC(=O)Nc2cc(C(C)(C)C)n[nH]2)cc1 [Compound 77, 1-(5-tert-butyl-2H-pyrazol-3-yl)-3-{4-[5-(2-methoxyl-ethoxyl)-benzimidazol-1-yl]-phenyl}-urea] | more than 1,000 times | –
6 | CC(C)(C)c1cc(NC(=O)Nc2ccc(-n3cnc4cc(OCCN5CCOCC5)ccc43)cc2)[nH]n1 [Compound 89, 1-(5-tert-butyl-2H-pyrazol-3-yl)-3-{4-[5-(2-morpholin-4-yl-ethoxyl)-benzimidazol-1-yl]-phenyl}-urea] | more than 1,000 times | –
7 | CC(C)(C)c1cc(N)n(C(=O)Nc2ccc(-n3cnc4ccccc43)cc2)n1 [Compound 116, 5-amino-3-tert-butyl-pyrazol-1-carboxylic acid (4-benzimidazol-1-yl-phenyl)-amide] | more than 1,000 times | –
